Results are given in words; binding and its absence hold for the method and conditions named. In cells and extracts the contact can be indirect. Some results given as binding are weak or reduced against the parent protein; the word gives no strength.
Molecular target: Y-box binding protein-1 (YBX1) (human (endogenous in CFPAC-1, SW1990 and PANC-1)) (UniProt P67809)
Test: co-IP; immunoprecipitation with a YBX1 antibody, western blot for YBX1, OGT and O-GlcNAcylation; CFPAC-1 and SW1990 cells with GFPT2 knockdown, PANC-1 cells with GFPT2 overexpression and OSMI-1 (40 μm) pretreatment

Chains of the proteins cited; added tags and fusions are not shown.
UniProt P67809: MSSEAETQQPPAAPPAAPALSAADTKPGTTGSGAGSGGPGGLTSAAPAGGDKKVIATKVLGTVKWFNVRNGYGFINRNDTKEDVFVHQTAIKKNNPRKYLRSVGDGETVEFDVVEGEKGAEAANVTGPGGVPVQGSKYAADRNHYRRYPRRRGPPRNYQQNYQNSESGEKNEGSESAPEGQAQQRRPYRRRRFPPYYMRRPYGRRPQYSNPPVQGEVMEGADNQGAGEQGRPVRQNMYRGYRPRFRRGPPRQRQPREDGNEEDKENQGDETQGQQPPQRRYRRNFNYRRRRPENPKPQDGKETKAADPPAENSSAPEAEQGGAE

B1: O-GlcNAc transferase (OGT) (enzyme, UniProt O15294 1-1046)
chain: MASSVGNVADSTEPTKRMLSFQGLAELAHREYQAGDFEAAERHCMQLWRQEPDNTGVLLLLSSIHFQCRRLDRSAHFSTLAIKQNPLLAEAYSNLGNVYKERGQLQEAIEHYRHALRLKPDFIDGYINLAAALVAAGDMEGAVQAYVSALQYNPDLYCVRSDLGNLLKALGRLEEAKACYLKAIETQPNFAVAWSNLGCVFNAQGEIWLAIHHFEKAVTLDPNFLDAYINLGNVLKEARIFDRAVAAYLRALSLSPNHAVVHGNLACVYYEQGLIDLAIDTYRRAIELQPHFPDAYCNLANALKEKGSVAEAEDCYNTALRLCPTHADSLNNLANIKREQGNIEEAVRLYRKALEVFPEFAAAHSNLASVLQQQGKLQEALMHYKEAIRISPTFADAYSNMGNTLKEMQDVQGALQCYTRAIQINPAFADAHSNLASIHKDSGNIPEAIASYRTALKLKPDFPDAYCNLAHCLQIVCDWTDYDERMKKLVSIVADQLEKNRLPSVHPHHSMLYPLSHGFRKAIAERHGNLCLDKINVLHKPPYEHPKDLKLSDGRLRVGYVSSDFGNHPTSHLMQSIPGMHNPDKFEVFCYALSPDDGTNFRVKVMAEANHFIDLSQIPCNGKAADRIHQDGIHILVNMNGYTKGARNELFALRPAPIQAMWLGYPGTSGALFMDYIITDQETSPAEVAEQYSEKLAYMPHTFFIGDHANMFPHLKKKAVIDFKSNGHIYDNRIVLNGIDLKAFLDSLPDVKIVKMKCPDGGDNADSSNTALNMPVIPMNTIAEAVIEMINRGQIQITINGFSISNGLATTQINNKAATGEEVPRTIIVTTRSQYGLPEDAIVYCNFNQLYKIDPSTLQMWANILKRVPNSVLWLLRFPAVGEPNIQQYAQNMGLPQNRIIFSPVAPKEEHVRRGQLADVCLDTPLCNGHTTGMDVLWAGTPMVTMPGETLASRVAASQLTCLGCLELIAKNRQEYEDIAVKLGTDLEYLKKVRGKVWKQRISSPLFNTKQYTMELERLYLQMWEHYAAGNKPDHMIKPVEVTESA
  binding: binds

From article PMC10995196
